Reference: article PMC11295332
Results are given in words; binding and its absence hold for the method and conditions named. Binding seen in cells or lysates may run through a third protein. Some binding calls cover weakened binding; strength is not graded here. Sequences can lack the tags named with a protein.

Target: T1, Interferon gamma receptor 1 (IFNGR1), myc-tagged (human) (UniProt P15260)
T1 sequence: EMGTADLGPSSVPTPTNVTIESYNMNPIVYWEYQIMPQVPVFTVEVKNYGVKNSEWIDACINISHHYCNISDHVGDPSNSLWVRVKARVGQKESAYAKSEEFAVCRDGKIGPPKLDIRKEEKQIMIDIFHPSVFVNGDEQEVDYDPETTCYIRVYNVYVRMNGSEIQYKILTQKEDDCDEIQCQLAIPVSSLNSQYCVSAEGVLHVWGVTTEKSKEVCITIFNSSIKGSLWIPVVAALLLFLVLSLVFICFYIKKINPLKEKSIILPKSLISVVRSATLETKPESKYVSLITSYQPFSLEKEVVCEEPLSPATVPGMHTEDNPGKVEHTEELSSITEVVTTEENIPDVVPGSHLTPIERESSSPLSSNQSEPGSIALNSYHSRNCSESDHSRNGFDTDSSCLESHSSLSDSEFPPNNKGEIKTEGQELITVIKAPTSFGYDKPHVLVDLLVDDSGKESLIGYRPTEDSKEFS
Assay: co-IP; Flag-tagged TPST2 and/or myc-tagged IFNGR1 overexpressed in MDA-MB-231 cells; lysis buffer 50 mM Tris-Cl pH 8.0, 150 mM NaCl, 1% NP-40; anti-myc-tag or anti-flag antibody on protein G magnetic beads, 4 °C, 16 h; reciprocal immunoprecipitation and western blotting

B1: Tyrosylprotein sulfotransferase-2 (TPST2), flag-tagged (enzyme, UniProt O60704 1-377)
chain: MRLSVRRVLLAAGCALVLVLAVQLGQQVLECRAVLAGLRSPRGAMRPEQEELVMVGTNHVEYRYGKAMPLIFVGGVPRSGTTLMRAMLDAHPEVRCGEETRIIPRVLAMRQAWSKSGREKLRLDEAGVTDEVLDAAMQAFILEVIAKHGEPARVLCNKDPFTLKSSVYLSRLFPNSKFLLMVRDGRASVHSMITRKVTIAGFDLSSYRDCLTKWNKAIEVMYAQCMEVGKEKCLPVYYEQLVLHPRRSLKLILDFLGIAWSDAVLHHEDLIGKPGGVSLSKIERSTDQVIKPVNLEALSKWTGHIPGDVVRDMAQIAPMLAQLGYDPYANPPNYGNPDPFVINNTQRVLKGDYKTPANLKGYFQVNQNSTSSHLGSS
binding: binds
